Patent US20240299380A1, “APPLICATION OF COMPOUND IN PREPARATION OF DRUG FOR TREATING MYELOFIBROSIS AND RELATED SYMPTOMS/SIGNS THEREOF, AND USE OF COMPOUND” (Betta Pharmaceuticals Co., Ltd, priority 2021, published 2024)

Test system: SET-2 cells with JAK2V617F activation mutation
Experiment: CTG cell proliferation assay, SET-2 cells
Type: cell-based, human
Procedure: The effects of compound 1 on proliferation of human myeloproliferative tumor cells HEL and SET-2 cells with JAK2V617F activation mutation were tested using CTG assay in this example to evaluate half inhibitory rate (IC50) of compound 1 on HEL and SET-2 cell proliferation.
• a) HEL cells were cultured in RPMI 1640 medium containing 1% PS and 10% FBS. […] The cells were incubated in a humidified incubator with 5% carbon dioxide (CO2) at 37° C.
• a) Cells were harvested upon reaching a certain density. • b) Cells were resuspended in corresponding medium with a certain density. • c) 30 μL of cell suspension was added into each well of a 384-well plate. For HEL, the density was 1800 cells/well, and for SET-2, 2000 cells/well. • d) Cells were incubated overnight in a humidified incubator with 5% CO2 at 37° C.
The compounds were diluted with DMSO 6.67 fold from 20 mM to 3 mM, then 3-fold serial dilutions were conducted to make 10 concentrations for each compound. Staurosporine was diluted with DMSO 6.67 fold from 20 mM to 3 mM, followed by 3-fold serial dilutions to make 10 concentrations. The vehicle control consisted of 100% DMSO, and the positive control was 3 mM Staurosporine.
• a) 30 μL CTG reagent (CelltiterGlo kit) was added to each well, and the plate was subjected to orbital shaking for 2 minutes, then incubated at room temperature in the dark for 30 minutes. • b) Luminescence values were obtained using Envision.
IC50 (the half maximal inhibitory concentration) was calculated with GraphPad Prism 8 software and following nonlinear fitting formula: […]
LUMHigh is the average value of 0.33% DMSO wells, LUMempd is the value of each well of the compound, LUMLow is the average value of 10 μM Staurosporine wells.

[1] = curve fit parameter (inhibition)

Cc1nc2ncc(-c3cn(C)c(=O)c4[nH]ccc34)nc2n1Cc1ccc(C(F)(F)F)cc1 [Compound 1, 6-methyl-4-(2-methyl-1-(4-(trifluoromethyl)benzyl)-1H-imidazo[4,5-b]pyrazin-6-yl)-1H-py rrolo[2,3-c]pyridin-7(6H)-one]
Hillslope (curve fit parameter): 1.6
Bottom [1]: 4.7
Top [1]: 104.6
